Reference: publication PMC5063997, “Engineered Tissue Inhibitor of Metalloproteinases-3 Variants Resistant to Endocytosis Have Prolonged Chondroprotective Activity*” (The Journal of Biological Chemistry, 2016)
Substitutions are numbered along the chain they refer to. In names and notes the source's numbering stands. No constants are given. Whether binding was seen depends on the method and setting. A result given as binding can be weak or reduced; the word gives no strength. Tags and fused reporters may be left off the sequences shown. Values belong to the binder of their own block, whether it stands above or below them.

The chains behind the UniProt entries cited, without tags or fusion partners. Where a name states a change or a piece, a line headed by the entry shows the natural chain unless it says otherwise.
UniProt Q9UNA0: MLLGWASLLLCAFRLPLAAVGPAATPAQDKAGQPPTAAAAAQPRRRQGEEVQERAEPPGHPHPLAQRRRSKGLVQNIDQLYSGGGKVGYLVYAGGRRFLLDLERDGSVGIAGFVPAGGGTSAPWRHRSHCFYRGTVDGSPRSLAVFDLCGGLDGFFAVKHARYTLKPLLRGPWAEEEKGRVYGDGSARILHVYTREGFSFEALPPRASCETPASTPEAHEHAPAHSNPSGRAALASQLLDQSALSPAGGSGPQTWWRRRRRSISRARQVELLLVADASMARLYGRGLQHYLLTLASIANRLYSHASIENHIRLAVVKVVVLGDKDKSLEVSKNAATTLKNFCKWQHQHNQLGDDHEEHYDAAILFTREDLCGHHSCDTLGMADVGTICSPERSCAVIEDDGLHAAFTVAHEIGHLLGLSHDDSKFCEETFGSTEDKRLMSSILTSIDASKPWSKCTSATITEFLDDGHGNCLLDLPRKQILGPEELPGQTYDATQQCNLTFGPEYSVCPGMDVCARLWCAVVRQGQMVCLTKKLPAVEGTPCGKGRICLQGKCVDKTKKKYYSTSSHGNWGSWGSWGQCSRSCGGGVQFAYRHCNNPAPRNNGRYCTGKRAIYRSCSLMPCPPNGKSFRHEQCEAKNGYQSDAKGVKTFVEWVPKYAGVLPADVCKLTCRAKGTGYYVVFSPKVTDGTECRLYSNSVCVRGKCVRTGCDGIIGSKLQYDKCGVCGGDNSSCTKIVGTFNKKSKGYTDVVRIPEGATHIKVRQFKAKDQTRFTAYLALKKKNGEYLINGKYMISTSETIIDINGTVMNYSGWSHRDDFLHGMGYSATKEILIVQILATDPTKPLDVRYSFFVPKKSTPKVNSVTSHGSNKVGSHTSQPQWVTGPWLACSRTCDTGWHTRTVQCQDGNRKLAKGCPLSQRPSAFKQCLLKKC

Biological target: ADAMTS-5 lacking the C-terminal thrombospondin domain (UniProt Q9UNA0)
Assay: enzyme inhibition under equilibrium conditions (Ki(app), tight binding equation); apparent; ADAMTS-5 (0.5 nM) preincubated with TIMP-3 (0.5-10 nM) with heparin (100 nM) 1 h at 37 °C, residual activity 18 h at 37 °C; 50 mM Tris-HCl pH 7.5, 150 mM NaCl, 10 mM CaCl2, 0.05% Brij 35, 0.02% NaN3; both purified

binding: binds
B1: wild-type TIMP-3 (tissue inhibitor of metalloproteinases-3), C-terminally FLAG-tagged (natural protein, UniProt P35625 24-211, looked up)
chain: CTCSPSHPQDAFCNSDIVIRAKVVGKKLVKEGPFGTLVYTIKQMKMYRGFTKMPHVQYIHTEASESLCGLKLEVNKYQYLLTGRVYDGKMYTGLCNFVERWDQLTLSQRKGLNYRYHLGCNCKIKSCYYLPCFVTSKNECLWTDMLSNFGYPGYQSKHYACIRQKGGYCSWYRGWAPPDKSIINATDP
notes: TIMP-3, secreted into the conditioned medium; source: for the screen also transiently transfected, conditioned medium dialyzed against TBS; not shown: FLAG, C-terminal, kept

B2: TIMP-3 K26A/K45A, C-terminally FLAG-tagged (natural protein, UniProt P35625 24-211, looked up)
chain: B1 chain with K26A, K45A
notes: as for B1
binding: binds
